From paper PMC5955088
Read-outs that look alike come from different tables or passages of the source. No constants are given. Whether binding was seen depends on the method and setting. For part of these data: Binding seen in cells or lysates may run through a third protein. Some results given as binding are weak or reduced against the parent protein; the word gives no strength. For part of these data: Sequences can lack the tags named with a protein.

By UniProt entry, the sequences of proteins in these tests, tags left out.
UniProt P42866: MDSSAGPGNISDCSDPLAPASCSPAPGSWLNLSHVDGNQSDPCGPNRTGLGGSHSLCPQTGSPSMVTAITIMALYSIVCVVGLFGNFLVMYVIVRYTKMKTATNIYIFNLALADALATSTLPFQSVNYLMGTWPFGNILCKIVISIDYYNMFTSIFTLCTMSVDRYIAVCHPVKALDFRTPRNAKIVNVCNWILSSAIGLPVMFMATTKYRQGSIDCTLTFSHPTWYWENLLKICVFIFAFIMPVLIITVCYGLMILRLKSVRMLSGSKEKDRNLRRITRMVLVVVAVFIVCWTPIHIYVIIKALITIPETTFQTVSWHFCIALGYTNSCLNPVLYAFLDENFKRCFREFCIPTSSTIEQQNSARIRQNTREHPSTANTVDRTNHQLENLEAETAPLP
UniProt P35363: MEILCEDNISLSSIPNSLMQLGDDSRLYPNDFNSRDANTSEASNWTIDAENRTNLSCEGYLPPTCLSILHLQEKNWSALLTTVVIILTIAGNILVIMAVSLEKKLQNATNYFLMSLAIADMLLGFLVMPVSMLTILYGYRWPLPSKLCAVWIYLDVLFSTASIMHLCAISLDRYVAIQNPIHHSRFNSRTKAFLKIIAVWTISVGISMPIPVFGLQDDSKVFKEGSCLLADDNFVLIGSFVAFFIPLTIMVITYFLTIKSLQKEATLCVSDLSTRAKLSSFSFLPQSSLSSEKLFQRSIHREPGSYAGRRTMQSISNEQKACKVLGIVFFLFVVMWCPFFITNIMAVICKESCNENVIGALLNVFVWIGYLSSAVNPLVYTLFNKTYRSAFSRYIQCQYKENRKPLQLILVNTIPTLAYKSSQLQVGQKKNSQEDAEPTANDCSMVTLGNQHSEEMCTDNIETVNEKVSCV
UniProt Q64264: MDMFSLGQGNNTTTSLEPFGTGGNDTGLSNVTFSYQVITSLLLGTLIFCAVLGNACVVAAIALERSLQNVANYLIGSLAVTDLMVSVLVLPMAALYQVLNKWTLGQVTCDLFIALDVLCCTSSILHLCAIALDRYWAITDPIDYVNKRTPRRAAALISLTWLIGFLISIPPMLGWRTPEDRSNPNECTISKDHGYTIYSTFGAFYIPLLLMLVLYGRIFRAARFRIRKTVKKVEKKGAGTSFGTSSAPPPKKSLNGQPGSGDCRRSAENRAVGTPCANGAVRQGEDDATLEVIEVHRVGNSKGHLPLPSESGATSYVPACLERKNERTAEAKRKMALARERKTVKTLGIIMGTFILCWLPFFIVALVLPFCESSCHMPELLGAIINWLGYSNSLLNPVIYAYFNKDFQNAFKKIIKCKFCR
UniProt O55242: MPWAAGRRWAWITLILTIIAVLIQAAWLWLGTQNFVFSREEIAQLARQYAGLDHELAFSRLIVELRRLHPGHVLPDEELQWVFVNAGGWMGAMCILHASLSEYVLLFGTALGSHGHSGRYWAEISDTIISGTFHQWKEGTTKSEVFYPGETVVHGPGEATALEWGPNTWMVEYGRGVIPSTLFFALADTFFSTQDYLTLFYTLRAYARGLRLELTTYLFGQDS

What was measured:
[1] = molecular target: mu opioid receptor (MOR), endogenous in mouse cerebral cortex synaptosomes (mouse (endogenous in cerebral cortex)) (UniProt P42866); experiment: co-IP; mouse cortical synaptosomal fraction, Nonidet P-40 solubilized; GPCR immunoprecipitated overnight at 4°C with biotin-conjugated IgG against its extracellular sequence; co-precipitated NR1 (C1) and HINT1 by Western blot; mice treated icv with saline, morphine 10 nmol, fenfluramine 10 nmol or S1RA 3 nmol
[2] = molecular target: cannabinoid type 1 receptor (CB1R), endogenous in mouse cerebral cortex synaptosomes (mouse (endogenous in cerebral cortex)) (UniProt P47746); experiment: as above
[3] = molecular target: serotonin 5HT2A receptor (5HT2AR), endogenous in mouse cerebral cortex synaptosomes (mouse (endogenous in cerebral cortex)) (UniProt P35363); experiment: as above
[4] = molecular target: serotonin 5HT1A receptor (5HT1AR), endogenous in mouse cerebral cortex synaptosomes (mouse (endogenous in cerebral cortex)) (UniProt Q64264); experiment: as above
[5] = molecular target: C-terminal region of the glutamate receptor NMDAR1 (residues 834-938), C0-C1-C2, GST-tagged, covalently coupled to NHS-activated Sepharose (mouse) (UniProt P35438); experiment: pull-down; NR1 C-terminal sequence covalently coupled to NHS-activated Sepharose 4FF; 100 nM σ1R, 20 min at RT, 50 mM Tris-HCl pH 7.4, 0.2% CHAPS, 2.5 mM CaCl2; three washes; bound σ1R by Western blot; then exposed to σ1R ligands (progesterone, S1RA, fenfluramine, norfenfluramine, PPCC); both purified
[6] = molecular target: mu opioid receptor (MOR), endogenous in mouse cerebral cortex synaptosomes (mouse (endogenous in cerebral cortex)) (UniProt P42866); experiment: co-IP; mouse cortical synaptosomal fraction, Nonidet P-40 solubilized; GPCR immunoprecipitated overnight at 4°C with biotin-conjugated IgG against its extracellular sequence; co-precipitated NR1 (C1) and HINT1 by Western blot; mice treated icv with saline, morphine 10 nmol, fenfluramine 10 nmol or S1RA 3 nmol; remark: listed apart in the source
[7] = molecular target: cannabinoid type 1 receptor (CB1R), endogenous in mouse cerebral cortex synaptosomes (mouse (endogenous in cerebral cortex)) (UniProt P47746); experiment: as above; remark: listed apart in the source
[8] = molecular target: serotonin 5HT2A receptor (5HT2AR), endogenous in mouse cerebral cortex synaptosomes (mouse (endogenous in cerebral cortex)) (UniProt P35363); experiment: as above; remark: listed apart in the source
[9] = molecular target: serotonin 5HT1A receptor (5HT1AR), endogenous in mouse cerebral cortex synaptosomes (mouse (endogenous in cerebral cortex)) (UniProt Q64264); experiment: as above; remark: listed apart in the source

Measured: binding

NMDAR NR1 subunit, endogenous in mouse cerebral cortex synaptosomes (from UniProt P35438-1 19-938) (receptor)
binds: [1] | [2] | [3] | [4]

sigma receptor type 1 (σ1R), murine full-length (1-223), recombinant, GST-free (from UniProt O55242 1-223)
binds: [5]

B1: histidine triad nucleotide-binding protein 1 (HINT1), endogenous in mouse cerebral cortex synaptosomes (protein, UniProt P70349 1-126)
chain: MADEIAKAQVAQPGGDTIFGKIIRKEIPAKIIFEDDRCLAFHDISPQAPTHFLVIPKKHISQISVADDDDESLLGHLMIVGKKCAADLGLKRGYRMVVNEGADGGQSVYHIHLHVLGGRQMNWPPG
binds: [6] | [7] | [8] | [9]
